Reference: the supplement of paper PMC11264405

Legend:
Experiment in all cases: minimum inhibitory concentration
[1] = compound: C[C@@H](O)[C@H]1C(=O)N2C(C(=O)O)=C(SCCNC=N)C[C@H]12 [imipenem]
[2] = compound: CC(=O)NC[C@H]1CN(c2ccc(N3CCOCC3)c(F)c2)C(=O)O1 [linezolid]
[3] = compound: CO[C@H]1/C=C/O[C@@]2(C)Oc3c(C)c(O)c4c(O)c(c(/C=N/N5CCN(C)CC5)c(O)c4c3C2=O)NC(=O)/C(C)=C\C=C\[C@H](C)[C@H](O)[C@@H](C)[C@@H](O)[C@@H](C)[C@H](OC(C)=O)[C@@H]1C [rifampicin]
[4] = compound: CN(C)c1cc(NC(=O)CNC(C)(C)C)c(O)c2c1C[C@H]1C[C@H]3[C@H](N(C)C)C(O)=C(C(N)=O)C(=O)[C@@]3(O)C(O)=C1C2=O [tigecycline]
[5] = compound: CN[C@H](CC(C)C)C(=O)N[C@H]1C(=O)N[C@@H](CC(N)=O)C(=O)N[C@H]2C(=O)N[C@H]3C(=O)N[C@H](C(=O)N[C@H](C(=O)O)c4cc(O)cc(O)c4-c4cc3ccc4O)[C@H](O)c3ccc(c(Cl)c3)Oc3cc2cc(c3O[C@@H]2O[C@H](CO)[C@@H](O)[C@H](O)[C@H]2O[C@H]2C[C@](C)(N)[C@H](O)[C@H](C)O2)Oc2ccc(cc2Cl)[C@H]1O [vancomycin]
[6] = compound: CCC[C@@H]1C[C@@H](C(=O)N[C@@H]([C@H]2O[C@H](SC)[C@H](O)[C@@H](O)[C@H]2O)[C@H](C)Cl)N(C)C1 [clindamycin]
[7] = compound: CCc1c(Cl)c(O)c(Cl)c(O)c1C(=O)O[C@H]1[C@H](O)[C@H](OC)[C@H](OC/C2=C\C=C\C[C@H](O)/C(C)=C/[C@H](CC)[C@@H](O[C@@H]3OC(C)(C)[C@@H](OC(=O)C(C)C)[C@H](O)[C@@H]3O)/C(C)=C/C(C)=C/C[C@@H]([C@@H](C)O)OC2=O)O[C@@H]1C [fidaxomicin]
[8] = compound: C[C@@H](O)[C@H]1C(=O)N2C(C(=O)O)=C(S[C@@H]3CN[C@H](C(=O)N(C)C)C3)[C@H](C)[C@H]12 [meropenem]
[9] = compound: Cc1ncc([N+](=O)[O-])n1CCO [metronidazole]

| Test System | minimum inhibitory concentration [1] [mg/L] | minimum inhibitory concentration [2] [mg/L] | minimum inhibitory concentration [3] [ng/mL] | minimum inhibitory concentration [4] [mg/L] | minimum inhibitory concentration [5] [mg/L] | minimum inhibitory concentration [6] [mg/L] | minimum inhibitory concentration [7] [mg/L] | minimum inhibitory concentration [8] [mg/L] | minimum inhibitory concentration [9] [mg/L] |
| --- | --- | --- | --- | --- | --- | --- | --- | --- | --- |
| Clostridioides difficile PCR ribotype 005 isolate #32 (European region: South, country: Italy, isolate source: Human, ribotype: 005) | 2 | 2 | < 1 | 0.06 | < 0.125 | 16 | 0.03 | 2 | 1 |
| Clostridioides difficile PCR ribotype 005 isolate #33 (European region: West, country: France, isolate source: Human, ribotype: 005) | 2 | 2 | < 1 | < 0.03 | 0.5 | 16 | 0.015 | 4 | 0.25 |
| Clostridioides difficile PCR ribotype 005 isolate #34 (European region: North, country: UK, isolate source: Human, ribotype: 005) | 2 | 2 | < 1 | < 0.03 | 0.5 | 16 | 0.03 | 4 | < 0.125 |
| Clostridioides difficile PCR ribotype 005 isolate #36 (European region: South, country: Spain, isolate source: Human, ribotype: 005) | 2 | 2 | 2 | 0.06 | 0.5 | 16 | 0.03 | 4 | < 0.125 |
| Clostridioides difficile PCR ribotype 005 isolate #285 (European region: West, country: Austria, isolate source: Animal, ribotype: 005) | 2 | 2 | < 1 | 0.06 | 1 | 8 | 0.03 | 4 | 0.25 |
| Clostridioides difficile PCR ribotype 005 isolate #286 (European region: South, country: Spain, isolate source: Animal, ribotype: 005) | 2 | 2 | < 1 | < 0.03 | 1 | > 128 | 0.03 | 4 | < 0.125 |
| Clostridioides difficile PCR ribotype 005 isolate #287 (European region: West, country: Austria, isolate source: Animal, ribotype: 005) | 2 | 2 | < 1 | 0.06 | 1 | 8 | 0.015 | 4 | < 0.125 |
| Clostridioides difficile PCR ribotype 005 isolate #288 (European region: West, country: France, isolate source: Animal, ribotype: 005) | 2 | 2 | < 1 | < 0.03 | 1 | 2 | 0.015 | 4 | 0.25 |
| Clostridioides difficile PCR ribotype 005 isolate #289 (European region: West, country: Netherlands, isolate source: Animal, ribotype: 005) | 0.5 | 2 | < 1 | < 0.03 | 1 | 8 | 0.015 | 4 | < 0.125 |
| Clostridioides difficile PCR ribotype 005 isolate #290 (European region: West, country: France, isolate source: Animal, ribotype: 005) | 1 | 2 | < 1 | < 0.03 | 1 | 8 | 0.015 | 4 | < 0.125 |
| Clostridioides difficile PCR ribotype 005 isolate #291 (European region: West, country: France, isolate source: Animal, ribotype: 005) | 2 | 2 | < 1 | < 0.03 | 1 | 16 | 0.015 | 4 | 0.25 |
| Clostridioides difficile PCR ribotype 005 isolate #292 (European region: West, country: France, isolate source: Animal, ribotype: 005) | 2 | 2 | < 1 | < 0.03 | 0.5 | 16 | 0.03 | 4 | 0.25 |
| Clostridioides difficile PCR ribotype 005 isolate #293 (European region: West, country: France, isolate source: Animal, ribotype: 005) | 2 | 2 | < 1 | < 0.03 | 0.5 | 16 | 0.03 | 4 | < 0.125 |
| Clostridioides difficile PCR ribotype 005 isolate #294 (European region: South, country: Spain, isolate source: Animal, ribotype: 005) | 2 | 16 | < 1 | 0.06 | 0.5 | > 128 | 0.03 | 4 | < 0.125 |
| Clostridioides difficile PCR ribotype 009 isolate #37 (European region: North, country: UK, isolate source: Human, ribotype: 009) | 2 | 2 | < 1 | 0.06 | 1 | 1 | 0.06 | 2 | < 0.125 |
| Clostridioides difficile PCR ribotype 009 isolate #38 (European region: North, country: Sweden, isolate source: Human, ribotype: 009) | 2 | 2 | < 1 | < 0.03 | 0.5 | > 128 | 0.015 | 2 | < 0.125 |
| Clostridioides difficile PCR ribotype 009 isolate #40 (European region: South, country: Spain, isolate source: Human, ribotype: 009) | 4 | 2 | < 1 | 0.06 | 0.5 | 1 | 0.06 | 4 | 0.25 |
| Clostridioides difficile PCR ribotype 009 isolate #41 (European region: North, country: UK, isolate source: Human, ribotype: 009) | 2 | 2 | < 1 | < 0.03 | 1 | 16 | 0.06 | 2 | 0.25 |
| Clostridioides difficile PCR ribotype 009 isolate #42 (European region: West, country: France, isolate source: Human, ribotype: 009) | 1 | 0.25 | < 1 | < 0.03 | 0.5 | 16 | 0.03 | 4 | < 0.125 |
| Clostridioides difficile PCR ribotype 009 isolate #295 (European region: South, country: Spain, isolate source: Animal, ribotype: 009) | 1 | 2 | < 1 | 0.06 | 0.5 | 0.25 | 0.008 | 4 | < 0.125 |
| Clostridioides difficile PCR ribotype 010 isolate #43 (European region: North, country: UK, isolate source: Human, ribotype: 010) | 4 | 2 | < 1 | < 0.03 | 0.5 | > 128 | 0.015 | 8 | 0.25 |
| Clostridioides difficile PCR ribotype 010 isolate #44 (European region: East, country: Romania, isolate source: Human, ribotype: 010) | 1 | 2 | < 1 | < 0.03 | 1 | 8 | 0.015 | 2 | < 0.125 |
| Clostridioides difficile PCR ribotype 010 isolate #45 (European region: North, country: UK, isolate source: Human, ribotype: 010) | 2 | 8 | < 1 | 0.06 | 0.5 | > 128 | 0.06 | 2 | < 0.125 |
| Clostridioides difficile PCR ribotype 010 isolate #47 (European region: North, country: Sweden, isolate source: Human, ribotype: 010) | 2 | 1 | < 1 | < 0.03 | 0.5 | 4 | 0.03 | 4 | 0.25 |
| Clostridioides difficile PCR ribotype 010 isolate #48 (European region: East, country: Poland, isolate source: Human, ribotype: 010) | 1 | 2 | < 1 | 0.06 | 0.5 | > 128 | 0.03 | 4 | 2 |
| Clostridioides difficile PCR ribotype 010 isolate #49 (European region: West, country: France, isolate source: Human, ribotype: 010) | 1 | 1 | < 1 | < 0.03 | 0.5 | > 128 | 0.03 | 4 | 8 |

2 records drawn at random from the list so far:

| Test System | minimum inhibitory concentration [1] [mg/L] | minimum inhibitory concentration [2] [mg/L] | minimum inhibitory concentration [3] [ng/mL] | minimum inhibitory concentration [4] [mg/L] | minimum inhibitory concentration [5] [mg/L] | minimum inhibitory concentration [6] [mg/L] | minimum inhibitory concentration [7] [mg/L] | minimum inhibitory concentration [8] [mg/L] | minimum inhibitory concentration [9] [mg/L] |
| --- | --- | --- | --- | --- | --- | --- | --- | --- | --- |
| Clostridioides difficile PCR ribotype 010 isolate #44 (European region: East, country: Romania, isolate source: Human, ribotype: 010) | 1 | 2 | < 1 | < 0.03 | 1 | 8 | 0.015 | 2 | < 0.125 |
| Clostridioides difficile PCR ribotype 005 isolate #290 (European region: West, country: France, isolate source: Animal, ribotype: 005) | 1 | 2 | < 1 | < 0.03 | 1 | 8 | 0.015 | 4 | < 0.125 |
